In PubChem BioAssay AID588497 (NMMLSC, 2011):
Out of some 360,000 compounds screened, about 780 (0.22%) were called active. This list was built around the results that the source calls inconclusive (neither active nor inactive); the mix of calls is not that of the screen. Rule as the data show it: active = inhibition above about 35% (passing the limit was not always enough); inconclusive = no clear call, values can overlap the other calls.

Each compound was assayed on Botulinum neurotoxin type F light chain protease (Clostridium botulinum) (assay: BoNT/F light chain protease inhibitors, primary screen, biochemical, flow cytometry, MLPCN library (AID 588497; also: plate controls were buffer without enzyme for full effect and enzyme alone for no effect)). Details: Multiplex microsphere protease cleavage assay, at 10 µM, hits give high values.
With CCCC[n+]1ccn(-c2nc3ccccc3nc2[N-]S(=O)(=O)c2cccs2)c1 the inhibition was inconclusive: -73.2%. In the case of Cc1nc([N+](=O)[O-])cn1CC(=O)c1ccc(OC(F)(F)F)cc1, the inhibition is reported as inactive: -1.6%. With Cn1c2ccccc2c2nnc(N/N=C/c3ccc(O)cc3)nc21 the inhibition was inconclusive: 23.8%. With CCN(CC)CCn1cnc2c1c(=O)n(CCOC(=O)c1cc(OC)c(OC)c(OC)c1)c(=O)n2C the inhibition was inconclusive: -55.3%. With COc1ccc(/C=N/n2c(-c3n[nH]c4c3CCC4)n[nH]c2=S)cc1 the inhibition was inconclusive: 24.9%. CC1=C(C(=O)N(C)C)CC(CC(=O)NC2CC2)C(=O)N1Cc1ccccc1 (stereo not drawn) was tested, and the inhibition was inactive: 2.3%. With CCCCCCC1CC(=CN(C)C)C(=O)O1 (stereo not drawn) the inhibition was inactive: -5.9%. COC(=O)c1cccc(OCC(O)Cn2ccnc2)c1 (stereo not drawn) was tested, and the inhibition was inconclusive: -18.4%. With COc1ccc(-c2nc3n(c(=O)c2C#N)CCS3)cc1OC the inhibition was inactive: 0.9%. In the case of COc1ccc(Br)cc1CN1CCN(S(=O)(=O)Cc2ccccc2)CC1, the inhibition is reported as inactive: 1.7%. CC1(C)C2SCC(=O)N2CCN1CC(=O)NN (stereo not drawn) was tested, and the inhibition was inconclusive: -17.4%. For CCc1nc2ccc(C(=O)Nc3cccc(OC)c3)cn2c1N(C)Cc1ccc(OC)cc1, the inhibition was inactive: -4.2%. In the case of CSc1ccc(CN2CCCC(N3CCN(c4ccccc4)CC3)C2)cc1 (stereo not drawn), the inhibition is reported as inconclusive: -13.3%. In the case of COc1ccc(C(CC(=O)Nc2cc(C)ccn2)N2Cc3ccccc3C2=O)cc1 (stereo not drawn), the inhibition is reported as active: 110%. For CC12CCC(C(=O)N3CCOCC3)([C@H](Br)C1=O)C2(C)C (stereo partly drawn), the inhibition was inconclusive: -76.2%. In the case of CC(C)CC[n+]1ccn(-c2nc3ccccc3nc2[N-]S(=O)(=O)c2ccc(Cl)cc2)c1, the inhibition is reported as inconclusive: -12%. Cc1cc(C)c(C#N)c(SCc2ccc(C(=O)O)cc2)n1 was tested, and the inhibition was inconclusive: -14.8%. For COCc1cc(=O)[nH]c(N2CCN(c3ccccc3OC)CC2)n1, the inhibition was inconclusive: -4.1%. With CCN1CCCC1CNCc1cc(OC)c(OC)c(OC)c1 (stereo not drawn) the inhibition was inactive: -6%. Cc1cc(C)cc(Cn2cc(CN3CC(N4CCN(C)CC4)CS3(=O)=O)nn2)c1 (stereo not drawn) was tested, and the inhibition was inactive: -0.7%. With COc1ccc(COC(=O)C2=C(C)NC(=O)NC2c2ccccc2)cc1 (stereo not drawn) the inhibition was inactive: -15.1%. COc1cc(OC)cc(C(=O)NNC(=O)C2CCCC2)c1 was tested, and the inhibition was inactive: -3.5%. With Cn1c(SCC(=O)Nc2ccc(Cl)cc2)nc(O)cc1=O the inhibition was inconclusive: -56.6%. COC(=O)/C=C1\N/C(=N/c2nc(C)c3cc(OC)ccc3n2)NC1=O was tested, and the inhibition was inconclusive: 7.2%. For Cc1ccc2c(Cl)c(Cc3ccccc3)c(=S)[nH]c2n1, the inhibition was inconclusive: 10.6%. In the case of Cc1ccccc1C(=O)NC(C(N)=O)P(=O)(OC(C)C)OC(C)C (stereo not drawn), the inhibition is reported as inconclusive: 62.9%. For COc1ccc(F)cc1CN1CCN(c2ncnc3scc(-c4ccccc4)c23)CC1, the inhibition was inconclusive: -44.3%. In the case of CC1CCCN(C(=S)Nc2ccc(S(=O)(=O)N3CCCCC3)cc2)C1 (stereo not drawn), the inhibition is reported as inconclusive: 106%. With CCN(CC)CCCN(C(=O)c1ccccc1F)c1nc(-c2ccc(OC)cc2)cs1 the inhibition was inconclusive: -17.5%. NC(=O)CN1C(=O)NC2(CCCc3sccc32)C1=O (stereo not drawn) was tested, and the inhibition was inactive: -6.2%. For CC1(C(=O)O)CCC(C(=O)NC2CCCCCC2)C1(C)C (stereo not drawn), the inhibition was inactive: 3.2%. For CCN(CC)S(=O)(=O)c1cc(OC)c(Cl)cc1OC, the inhibition was inactive: -8.2%. In the case of Clc1ccc2c(c1)C=Nc1c(NCc3ccccc3)ncnc1O2, the inhibition is reported as inconclusive: 7.8%. For COc1cc2ncnc(Nc3ccc4c(c3)OCO4)c2cc1OC, the inhibition was inconclusive: -11.4%. For O=C(CN1CCN(c2ccc(Cl)cc2[N+](=O)[O-])CC1)N1CCOCC1, the inhibition was inconclusive: 51.5%. With CCOc1ccc(N=Nc2c(C)[nH]n(-c3ccccc3)c2=O)cc1 the inhibition was inconclusive: -28.5%. For COc1ccc(NC(=O)c2ccccc2Oc2ccccc2)cc1, the inhibition was inconclusive: -14.1%. In the case of COc1ccc(N(CCC#N)C(=O)/C(C#N)=C\c2cccs2)cc1, the inhibition is reported as inactive: 4.3%. With CCOC(=O)C1CCCN(CCC(=O)Nc2c(C(=O)OC)[nH]c3cc(OC)ccc23)C1 (stereo not drawn) the inhibition was inactive: 5.8%. With COc1cc(OC)cc(C(=O)Nn2cc(C(=O)Nc3ccc(F)cc3F)c3ccccc3c2=O)c1 the inhibition was inactive: -5.8%. O=C1CSC(c2cccnc2)N1c1ccccc1 (stereo not drawn) was tested, and the inhibition was inactive: -3.8%. For CCOC(=O)Cn1cnc2scc(-c3ccc(C)c(C)c3)c2c1=O, the inhibition was inconclusive: -42.6%. O=C(Nc1ccc(C(=O)N2CCN(c3ccccc3F)CC2)cc1)C1=CSCCO1 was tested, and the inhibition was inactive: 3.1%. With CC(=O)CCS(=O)(=O)c1ccc(C)c(C)c1 the inhibition was inconclusive: -27.6%. For O=C(Nc1cccc2ccccc12)NC1Cc2ccccc2C1, the inhibition was inconclusive: -58%. Cc1cc(/C=C2\C(=O)NC(=O)N(c3ccc(Cl)cc3)C2=O)c(C)n1C was tested, and the inhibition was inactive: -3.4%. For COc1ccc(N2CCN(C(=O)c3cccs3)CC2)cc1, the inhibition was inconclusive: 24.6%. CCCCCC(=O)N1C[C@@H](n2cc(C3CC3)nn2)[C@H](O)C[C@@H]1c1ccc(C)cc1 was tested, and the inhibition was inactive: 4.9%. In the case of CCOC(=O)N1CCN(C(=O)CSCc2ccccc2Cl)CC1, the inhibition is reported as inactive: 7.3%. In the case of COc1cc(OC)cc(C(=O)NC2CC3CCC(C2)N3C)c1 (stereo not drawn), the inhibition is reported as inconclusive: 5.2%. NNC(=O)c1cc2sccc2s1 was tested, and the inhibition was inconclusive: 49.1%. In the case of Cc1ccc(OCC(O)CNCc2ccccc2)cc1C (stereo not drawn), the inhibition is reported as inconclusive: -37.7%. In the case of CC(C)c1ccc(C(=O)Nc2ccc(S(=O)(=O)NC3=NCCCCC3)cc2)cc1, the inhibition is reported as inactive: -6.6%. In the case of Cc1cc(C)nc(SCC(=O)NNS(=O)(=O)c2ccc(C#N)cc2)n1, the inhibition is reported as inconclusive: -14.5%. With COc1ccc(-c2nc(SC(C)C(=O)NC3CC3)n[nH]2)cc1 (stereo not drawn) the inhibition was inconclusive: -2.1%. In the case of COc1ccc2[nH]cc(CCNC(=O)Cc3ccc(F)cc3)c2c1, the inhibition is reported as inconclusive: 22.5%. In the case of Cn1ncc2c1NC(c1ccc(F)cc1)SCC2=O (stereo not drawn), the inhibition is reported as inactive: -2.1%. With CC(C)c1ccccc1OCCCCCN1CCOCC1 the inhibition was inconclusive: -16.1%. In the case of Cc1c(C(=O)N2CCN(C)CC2)oc2ccc(Br)cc12, the inhibition is reported as inconclusive: 21.3%. For O=C(Nc1ccc(O)c(C(=O)O)c1)Oc1ccccc1, the inhibition was inconclusive: -11.9%. With COC(=O)/C(C#N)=C/c1c(N2CCN(c3ccc(OC)cc3)CC2)nc2c(C)cccn2c1=O the inhibition was inconclusive: -30.9%. For CCOc1ccccc1NC(=O)Cc1cccs1, the inhibition was inconclusive: 7.4%. In the case of CCCCCCNc1nc(Cl)nc(NC(C)(C)CO)n1, the inhibition is reported as inconclusive: -33.9%. For CSc1nc(Oc2ccc(F)cc2F)cc(C(F)(F)F)n1, the inhibition was active: 41.4%. With CC(C)C[C@H](NC(=O)OC(C)(C)C)C(=O)N[C@@H](CO)[C@H](O)[C@@H]1C[C@@H]1C(=O)N(C)C the inhibition was inactive: -6.8%. With CCOc1ccccc1NC(=S)N1CCN(c2cccc(C)c2C)CC1 the inhibition was inconclusive: 6.8%. With Cc1ccc(/C=N/N2CCN(c3ccccn3)CC2)o1 the inhibition was inconclusive: -19.8%. For CC(C)CC(=O)c1c[nH]c(C(=O)NCC2CCCO2)c1 (stereo not drawn), the inhibition was inconclusive: -61.3%. COc1ccc(CNC(=O)COC(=O)C2=COCCO2)cc1 was tested, and the inhibition was inconclusive: -25.2%. O=C1CC(c2cccc(F)c2)SC(N(c2ccccc2)c2ccccc2)=N1 (stereo not drawn) was tested, and the inhibition was inactive: -1.7%. With Cc1cc(C)nc(NS(=O)(=O)c2ccc(NC(=O)c3ccc4c(c3)OCCO4)cc2)n1 the inhibition was active: 35.6%. For CCCN(CC(=O)Nc1ccccc1OC)C(=O)Cc1ccc2c(c1)CCC2, the inhibition was inconclusive: -15.6%. With COc1cccc(-c2nnc(N)o2)c1 the inhibition was inconclusive: 12.3%. For COc1ccc(OC)c(N/C(=N/c2nc(C)cc(C)n2)NC(C)=O)c1, the inhibition was inconclusive: -26.5%. For O=C(CCN1C(=O)/C(=C\c2ccccc2F)SC1=S)N1CCOCC1, the inhibition was inactive: -7%. With Cc1cc(C)n(CC(C)NC(=O)c2cc(COc3ccc(F)c(F)c3)on2)n1 (stereo not drawn) the inhibition was inactive: 2.5%. With Cc1ccc(N2CC(C(=O)NCc3n[nH]c(=O)c4ccccc34)CC2=O)cc1 (stereo not drawn) the inhibition was inactive: -3.2%. With O=C(O)CCC(=O)Nc1ccc(N2CCCCC2)c(C(=O)O)c1 the inhibition was inconclusive: 27.6%. For CC(C)[N+](C)(C)CC#CC(O)(c1ccccc1)c1ccccc1, the inhibition was inconclusive: 23.9%. In the case of Cc1ccc(NC(=O)NNC(=O)C2CC(c3cccnc3)=NO2)cc1 (stereo not drawn), the inhibition is reported as inconclusive: -17.8%. For Cc1ccc(S(=O)(=O)CCC(=O)OCC(=O)NC2CCS(=O)(=O)C2)cc1 (stereo not drawn), the inhibition was inconclusive: -0.3%. In the case of COc1ccccc1Cn1c(=O)oc2ccc(C)cc21, the inhibition is reported as inconclusive: 30.2%. COCC1CCCCN1C(=O)c1ccc(OC2CCN(CCc3ccccc3)CC2)cc1 (stereo not drawn) was tested, and the inhibition was inactive: -3.8%. COc1ccc(C(CNC(=O)c2cccc(S(=O)(=O)Nc3ccccc3OC)c2)N2CCCC2)cc1 (stereo not drawn) was tested, and the inhibition was active: 36.9%. Cc1cc(Nc2ccc3c(c2)OCCO3)c2ccccc2n1 was tested, and the inhibition was inactive: -7.9%. CCCCNC(=O)COC(=O)c1ccccc1F was tested, and the inhibition was inactive: 0.9%. CCN(CC)C(=O)CSc1nc(Cc2ccccc2)nc2ccccc12 was tested, and the inhibition was inconclusive: 27%. COC(=O)c1ccc2c(=O)n(CCO)c(=S)[nH]c2c1 was tested, and the inhibition was inactive: 3.7%. In the case of CCCOC(=O)C1=C(C)NC2=C(C(=O)CCC2)C1c1ccc(N(C)C)cc1 (stereo not drawn), the inhibition is reported as inconclusive: -29.5%. With N#CCCn1nc(-c2ccccc2)c2ccccc2c1=O the inhibition was inconclusive: 26.6%. With Cn1c(CCc2ccccc2)nnc1SCC(=O)N1CCCC1 the inhibition was inconclusive: -22.7%. With Cc1ccc(CNC(=O)CN2C(=O)C3(OCCCO3)c3ccccc32)cc1 the inhibition was active: 39.8%. In the case of CC(=O)Nc1cccc(-n2nnc(SCC(=O)N(C)c3ccccc3)n2)c1, the inhibition is reported as inconclusive: 10.8%.
